In all, about 360,000 compounds went through this assay and about 7,500 (2.1%) were called active. The shares of active, inactive and inconclusive entries below differ from those in the screen. Calls come from the whole dose curve; as a rule, active = well fitted inhibition curve with a large enough effect; inconclusive = small, poorly fitted or top-dose-only effect, or effect the other way; inactive = flat fitted curve, though single readings scatter. Where the call is inconclusive, the potency comes from a doubtful curve fit.
Experiment: Nrf2 qHTS screen for inhibitors; note: nearly all actives have a fitted effect of over 60% in size
Conditions: A549 ARE-Fluc reporter, luciferase luminescence, 18-24 h; activity change, negative = inhibition: at 46 µM (top of the series)
In short: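 Nrf2 function is reported as luminescence of an ARE-controlled luciferase in A549 cells. Compounds were tested at several concentrations, and a CellTiter-Fluor read on the same wells flagged cytotoxicity.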
% is set by controls: 0 for no effect and ±100 for the full control effect; potency is the fitted concentration of half-maximal effect.

Structure (SMILES) | Potency | activity change, negative = inhibition
COc1ccc(/C=C(\NC(=O)c2cccs2)C(=O)Nc2cccc3ccccc23)cc1OC | inconclusive: 32.6 µM [falling, partial curve, poor fit] | 
CCOC(=O)c1[nH]c(C)c(C(=O)Nc2ccc(C)c(Cl)c2)c1C | inconclusive: 25.9 µM [falling, single point] | 
Cc1nc(SCC#N)c2c(C)c(C)sc2n1 | inconclusive: 29.1 µM [falling, single point] | 
COc1ccc(-c2nc3ccc(C)cn3c2NCc2ccc3c(c2)OCO3)cc1 | inconclusive: 32.6 µM [activator, single point] | 
CCOC(=O)c1cc2c(=O)n3ccccc3nc2n(Cc2ccco2)c1=NC(=O)c1ccccc1OC | inconclusive: 20.6 µM [falling, single point] | 
CC(=O)NCc1ccc(-c2nc3ccccc3s2)cc1 |  | inactive: 4.33%
COc1cc(NC(=O)c2oc3ccccc3c2C)ccc1NC(=O)c1ccco1 | inconclusive: 3.26 µM [falling, partial curve, poor fit] | 
Nc1nc2ccccc2n1C(=O)c1ccc(F)cc1 | inconclusive: 0.517 µM [activator, full curve, poor fit] | 
O=C(Cn1c(=O)n(-c2ccc(F)cc2)c(=O)c2sccc21)Nc1cccc(C(F)(F)F)c1 | inconclusive: 10.3 µM [falling, partial curve, poor fit] | 
c1ccc(-c2cc(N3CCOCC3)nc(-c3ccccc3)n2)cc1 | inconclusive: 1.03 µM [falling, full curve, poor fit] | 
Cc1ccc(S(C)(=O)=O)cc1C(=O)OCC(=O)N(Cc1ccccc1)Cc1ccccc1 | inconclusive: 32.6 µM [falling, single point] | 
Clc1ccccc1-c1nnc2sc(-c3ccco3)nn12 | inconclusive: 32.6 µM [falling, single point] | 
O=C(NC1CCN(Cc2ccccc2)CC1)c1ccc2c(c1)[nH]c(=O)n2Cc1ccc(F)cc1 | active: 4.61 µM | 
Cc1ccc(-n2cc(CN(C)CCc3cn[nH]c3)c(-c3cccc(C)c3)n2)cc1 | inconclusive: 0.13 µM [activator, full curve, poor fit] | 
CCOc1ccc2nc(N3CCCC(C(=O)NCCc4ccc(SC)cc4)C3)sc2c1 (stereo unspecified) | inconclusive: 6.51 µM [activator, partial curve] | 
O=C(Nc1ccccc1N1CCCC1)c1cc(S(=O)(=O)N2CCOCC2)ccc1Cl | inconclusive: 11.6 µM [falling, partial curve, poor fit] | 
O=C(CN1CCN(c2ccc([N+](=O)[O-])cc2)CC1)Nc1ccccn1 | inconclusive: 29.1 µM [falling, single point] | 
Cc1cccc(S(=O)(=O)Nc2ccc(-c3ccc4nncn4n3)cc2)c1 | inconclusive: 29.1 µM [falling, single point] | 
COc1cccc(CNC(=O)c2ccc(CS(=O)Cc3ccc(C)cc3)o2)c1 (stereo unspecified) | inconclusive: 25.9 µM [falling, single point] | 
Cc1cccn(Cc2c(Cl)cccc2Cl)c1=O |  | inactive: -5.04%
c1ccc(-c2cnc(-c3ccccn3)nn2)cc1 | inconclusive: 2.06 µM [activator, partial curve] | 
COc1ccc(OC)c(NC(=O)CSc2nnc(-c3cccnc3)s2)c1 | inconclusive: 1.46 µM [falling, partial curve] | 

Reformatted: entries from further up.
Structure (SMILES)	Potency	activity change, negative = inhibition
O=C(NC1CCN(Cc2ccccc2)CC1)c1ccc2c(c1)[nH]c(=O)n2Cc1ccc(F)cc1	active: 4.61 µM	
Cc1ccc(-n2cc(CN(C)CCc3cn[nH]c3)c(-c3cccc(C)c3)n2)cc1	inconclusive: 0.13 µM [activator, full curve, poor fit]	

(cont.)

Structure (SMILES) | Potency | activity change, negative = inhibition
CCCCN(C)CCN1C(=O)C2C(C(=O)Nc3ccc(C)cc3)C3C=CC2(O3)C1C(=O)NC1CCCCC1 (stereo unspecified) |  | inactive: -12%
N#Cc1ccccc1NC(=O)COC(=O)c1cccs1 | inconclusive: 32.6 µM [activator, partial curve, poor fit] | 
CCc1ccn2cc(-c3ccc4c(c3)OCO4)nc2c1 | inconclusive: 29.1 µM [falling, single point] | 
Cc1nc2nc(-c3cccs3)cn2nc1C | inconclusive: 2.91 µM [activator, partial curve] | 
O=c1c2ccccc2sc2ccc(NCCCN3CCOCC3)cc12 | inconclusive: 16.4 µM [activator, partial curve] | 
CC(c1ccccc1)c1nnc(NC(=O)c2ccc3c(c2)OCO3)s1 (stereo unspecified) | inconclusive: 6.51 µM [falling, single point] | 
Cc1cccc(NC(=O)/C(C#N)=C/c2cn(CC(=O)NCc3ccco3)c3ccccc23)c1C | inconclusive: 6.51 µM [falling, single point] | 
O=C(Nc1cnc2ccccc2c1)N1CCCCC1 | inconclusive: 1.03 µM [activator, full curve, poor fit] | 
O=C(c1ccco1)N1CCN(c2ncnc3c(-c4ccc(Cl)cc4)nsc23)CC1 | inconclusive: 11.6 µM [activator, partial curve] | 
NC(=O)C1CCN(c2nc(-c3ccc(Br)cc3)cs2)CC1 | inconclusive: 4.61 µM [activator, single point] | 
CC(Cc1cccs1)NC(=O)Nc1ccc(F)cc1 (stereo unspecified) | inconclusive: 29.1 µM [falling, single point] | 
COc1cc(OC)cc(-c2nc3ccccc3c(=O)n2OC(=O)c2ccccc2C)c1 | inconclusive: 29.1 µM [falling, single point] | 
CC12CCC=CC1C(c1ccc(F)c(/C=C/c3ccccc3)c1)N(Cc1ccccc1)C2=O (stereo unspecified) |  | inactive: 10.5%
CC(=O)c1c(C)[nH]c(C(=O)OCC(=O)Nc2cc(C)on2)c1C | inconclusive: 18.4 µM [falling, single point] | 
COC(=O)c1ccc(Cl)cc1NC(=O)Nc1nnc(N(C)Cc2ccccc2)s1 | inconclusive: 29.1 µM [activator, single point] | 
COc1ccc(C2c3c(-c4ccccc4O)n[nH]c3C(=O)N2CCc2ccccc2)cc1 (stereo unspecified) | inconclusive: 25.9 µM [falling, single point] | 
Cc1ccc(-c2ccc(C(=O)O)o2)cc1Cl | inconclusive: 29.1 µM [activator, single point] | 
CC(=O)Nc1ccc2[nH]c3ccccc3c2c1 |  | inactive: -22.5%
CCOc1ccc(S(=O)(=O)Nc2ccc(C(=O)N3CCC3)cc2)cc1 |  | inactive: -13.1%
CCC(C(=O)OC)n1nnc2sc(-c3ccccc3)cc2c1=O (stereo unspecified) | inconclusive: 29.1 µM [falling, single point] | 
CC(C)Cn1c(CN(C)Cc2ccccc2)nc2c1c(=O)n(C)c(=O)n2C | inconclusive: 29.1 µM [falling, single point] | 
O=C(NC(=S)Nc1ccc2oc(=O)ccc2c1)c1cccc(F)c1 | inconclusive: 1.46 µM [activator, partial curve, poor fit] | 

Structure (SMILES) | Potency | activity change, negative = inhibition
O=C(NCCc1ccccc1)C1CCN(S(=O)(=O)c2ccccc2)CC1 | inconclusive: 0.461 µM [falling, full curve, poor fit] | 
N#Cc1nc(NCc2ccc(Cl)c(Cl)c2)c2ncn(CCCO)c2n1 | inconclusive: 20.6 µM [falling, single point] | 
CC1(C)CC(=O)C=C(c2ccc(I)cc2)C1 | inconclusive: 1.46 µM [activator, full curve, poor fit] | 
N/C(=N\OC(=O)c1ccc2ccccc2c1)c1ccccc1Cl | inconclusive: 5.17 µM [activator, full curve] | 
C=CCn1c(COc2cccc(C)c2C)nnc1SCC(=O)N1CCN(c2ccccc2)CC1 | active: 16.4 µM | 
Cn1c(=O)c2sccc2n2c(CCC(=O)Nc3ccc(F)cc3)nnc12 |  | inactive: 2.95% [at 9.27 µM]
O=C1CCCN1CCCNc1ncnc2c1cnn2-c1ccc(Cl)cc1 | inconclusive: 29.1 µM [falling, single point] | 
COc1ccc(OC)c(-c2noc(N3CCN(c4cc(Cl)ccc4C)CC3)n2)c1 | inconclusive: 29.1 µM [activator, single point] | 
O=C(c1ccc(F)cc1)N1CCCC(c2ccccc2)C1 (stereo unspecified) | inconclusive: 6.51 µM [activator, single point] | 
Cc1ccc(C)c(NC(=O)CSc2nnc(C)n3c2cc2occc23)c1 | inconclusive: 32.6 µM [falling, single point] | 
CCC1CCCCN1CCCNC(=O)c1ccc2c(c1)sc1nc(-c3ccc(F)cc3)cn12 (stereo unspecified) |  | inactive: 19.4%
Cc1ccc(CSCCNC(=O)c2ccc(Cl)c(S(=O)(=O)N3CCOCC3)c2)cc1 | inconclusive: 29.1 µM [falling, single point] | 
Cc1ccc(C2=NN(S(C)(=O)=O)C(c3cccs3)C2)cc1 (stereo unspecified) | inconclusive: 5.8 µM [activator, partial curve] | 
COc1ccc(Cc2nnc(C(=O)NCCCN3CCN(c4ccccc4F)CC3)o2)cc1OC | inconclusive: 20.6 µM [falling, single point] | 
CCOC(=O)Cc1cc(-c2ccc(OC)cc2)nc2ccc3ccccc3c12 |  | inactive: 18.7%
CC(OC(=O)c1cc2sccc2n1C)C(=O)NCc1cccs1 (stereo unspecified) | inconclusive: 29.1 µM [falling, single point] | 
CC(C)COc1ccc(Nc2ncnc3ccc(Br)cc23)cc1 |  | inactive: 5.67%
Cc1sc2c3ccsc3ccc2[n+]1C |  | inactive: 1.61%
O=C1/C(=C\c2ccsc2)NC(=S)N1c1ccccc1 | inconclusive: 16.4 µM [activator, single point] | 
CCSc1ccccc1C(=O)Nc1ccc2c(c1)OCO2 | inconclusive: 20.6 µM [activator, partial curve, poor fit] | 
CNS(=O)(=O)c1cn(CC(=O)Nc2cccc(C(F)(F)F)c2)cc1S(=O)(=O)NC |  | inactive: 1.5%
COc1ccc([C@@H]2[C@@H]3C(=O)N(C(C)(C)C)C(=O)[C@@H]3[C@]3(Cc4ccccc4)C(=O)N(c4cccc(C)c4)C(=O)N23)cc1 | inconclusive: 13 µM [activator, partial curve] | 

Source: PubChem BioAssay AID504444 (National Center for Advancing Translational Sciences (NCATS), 2011)
